Taken from: PubChem BioAssay AID504774 (Drosophila RNAi Screening Center, 2011)

Aim: 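Genes required for cells to withstand methyl methanesulphonate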 (primary screen)
System: Drosophila Kc167 cells
Reagents: long dsRNA against Drosophila genes, about 0.25 µg dsRNA per well
Duration: about 6 days: 3 days knock-down, then 3 days with or without MMS
Treatment: methyl methanesulphonate 0.004% (w/v) for 3 days after knock-down
Detection: 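ATP-dependent luminescence as a measure of live cells in MMS-exposed wells, quantile normalised within each plate, with replicate values also given as a mean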
Reading the numbers: mean viability with MMS and viability with MMS: higher = more surviving cells after MMS
The screen tested about 23,000 reagents; below is an unselected part of those that have a named target and a result. 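Values are quantile-normalised luminescence on an arbitrary scale; higher means more cells surviving MMS.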 Names joined by + are all predicted targets of the reagent.

| gene knocked down | amplicon | mean viability with MMS | viability with MMS, replicate 1 | viability with MMS, replicate 2 |
| --- | --- | --- | --- | --- |
| CAH9 | DRSC15963 | 3.65e6 | 4.21e6 | 4.06e6 |
| CG13603 | DRSC14606 | 3.56e6 | 4.02e6 | 4.07e6 |
| CG9698 | DRSC16539 | 3.36e6 | 3.77e6 | 3.77e6 |
| msl-3 | DRSC11371 | 3.68e6 | 4.28e6 | 4.08e6 |
| CG12133 | DRSC06108 | 3.58e6 | 4.12e6 | 3.98e6 |
| CG31294 | DRSC22217 | 3.60e6 | 4.02e6 | 4.12e6 |
| CG8562 | DRSC10995 | 3.53e6 | 4.05e6 | 3.97e6 |
| pho | DRSC17219 | 3.59e6 | 4.05e6 | 4.10e6 |
| Trmt61 | DRSC14888 | 3.53e6 | 3.98e6 | 4.00e6 |
| zda | DRSC06936 | 3.46e6 | 3.89e6 | 3.95e6 |
| Ing5 | DRSC03188 | 3.33e6 | 3.73e6 | 3.78e6 |
| upSET | DRSC11051 | 3.03e6 | 3.60e6 | 3.63e6 |
| upSET | DRSC23289 | 3.65e6 | 4.12e6 | 4.16e6 |
| CG16824 | DRSC02525 | 3.37e6 | 3.73e6 | 3.89e6 |
| CG14696 | DRSC14919 | 3.38e6 | 3.87e6 | 3.84e6 |
| CG10384 | DRSC03933 | 3.54e6 | 4.02e6 | 4.01e6 |
| CG10384 | DRSC04067 | 3.04e6 | 3.51e6 | 3.48e6 |
| CG14695 | DRSC14918 | 3.54e6 | 4.07e6 | 3.98e6 |
| CG1421 | DRSC03707 | 3.65e6 | 4.22e6 | 4.06e6 |
| CG17118 | DRSC02579 | 3.41e6 | 3.81e6 | 3.89e6 |
| fz | DRSC11348 | 3.54e6 | 4.11e6 | 3.91e6 |
| CG6675 | DRSC03735 | 3.66e6 | 4.17e6 | 4.13e6 |
| CG14518 | DRSC14870 | 3.55e6 | 4.07e6 | 3.98e6 |
| CG31462 (retired record) | DRSC14359 | 3.58e6 | 4.01e6 | 4.13e6 |
| Grip128 | DRSC20167 | 3.65e6 | 4.01e6 | 4.23e6 |
| CG31668 | DRSC22584 | 3.64e6 | 4.20e6 | 3.99e6 |
| CG3123 | DRSC00570 | 3.28e6 | 3.67e6 | 3.69e6 |
| Gadd45 | DRSC06033 | 3.58e6 | 4.02e6 | 4.07e6 |
| Rchy1 | DRSC02542 | 3.12e6 | 3.34e6 | 3.63e6 |
| Rchy1 | DRSC23118 | 3.48e6 | 3.94e6 | 3.99e6 |
| CG2059 | DRSC18203 | 3.48e6 | 3.96e6 | 3.95e6 |
| CG7744 | DRSC07036 | 3.47e6 | 3.93e6 | 3.93e6 |
| nAChRalpha6 | DRSC01096 | 3.55e6 | 4.05e6 | 3.98e6 |
| nAChRalpha6 | DRSC02738 | 3.74e6 | 4.68e6 | 3.84e6 |
| CG5381 | DRSC02852 | 3.62e6 | 3.87e6 | 4.33e6 |
| CG30109 + CG30108 | DRSC05674 | 3.52e6 | 4.09e6 | 3.88e6 |
| bowl | DRSC00805 | 3.58e6 | 4.01e6 | 4.12e6 |
| CG42284 | DRSC22094 | 3.68e6 | 4.10e6 | 4.17e6 |
| CG42284 | DRSC22342 | 3.54e6 | 4.02e6 | 4.01e6 |
| azot | DRSC06051 | 3.61e6 | 4.07e6 | 4.06e6 |
| CG11309 | DRSC11650 | 3.50e6 | 4.06e6 | 3.86e6 |
| Gmppb | DRSC12169 | 3.38e6 | 3.79e6 | 3.85e6 |
| mei-38 | DRSC18564 | 3.53e6 | 4.06e6 | 3.96e6 |
| prim | DRSC06575 | 3.78e6 | 4.42e6 | 4.06e6 |
| CG13384 | DRSC02258 | 3.42e6 | 4.01e6 | 3.65e6 |
| betaTub60D | DRSC04673 | 3.72e6 | 4.17e6 | 4.22e6 |
| betaTub60D | DRSC22218 | 3.61e6 | 4.02e6 | 4.12e6 |

Entries listed so far whose gene name begins with B or b:
| gene knocked down | amplicon | mean viability with MMS | viability with MMS, replicate 1 | viability with MMS, replicate 2 |
| --- | --- | --- | --- | --- |
| bowl | DRSC00805 | 3.58e6 | 4.01e6 | 4.12e6 |
| betaTub60D | DRSC04673 | 3.72e6 | 4.17e6 | 4.22e6 |
| betaTub60D | DRSC22218 | 3.61e6 | 4.02e6 | 4.12e6 |

The list goes on:
| gene knocked down | amplicon | mean viability with MMS | viability with MMS, replicate 1 | viability with MMS, replicate 2 |
| --- | --- | --- | --- | --- |
| CG14969 | DRSC08428 | 3.49e6 | 3.88e6 | 4.02e6 |
| CG9849 | DRSC04573 | 3.64e6 | 4.21e6 | 4.05e6 |
| CG17724 | DRSC06687 | 3.32e6 | 3.68e6 | 3.83e6 |
| Mnt | DRSC17894 | 3.37e6 | 3.80e6 | 3.86e6 |
| Mnt | DRSC18480 | 3.61e6 | 3.95e6 | 4.23e6 |
| CG31875 | DRSC21975 | 3.53e6 | 3.94e6 | 4.06e6 |
| trk | DRSC03625 | 3.61e6 | 4.11e6 | 4.07e6 |
| Csl4 | DRSC02944 | 3.51e6 | 4.00e6 | 3.97e6 |
| Csl4 | DRSC22664 | 3.38e6 | 3.86e6 | 3.94e6 |
| CG17780 + CG17781 | DRSC15266 | 3.52e6 | 3.97e6 | 3.99e6 |
| Cp110 | DRSC20630 | 3.59e6 | 4.13e6 | 4.02e6 |
| Cp110 | DRSC21716 | 3.40e6 | 3.81e6 | 3.97e6 |
| CG4483 | DRSC10426 | 1.78e6 | 3.92e6 | – |
| Iris | DRSC00663 | 3.77e6 | 4.28e6 | 4.32e6 |
| CG34005 | DRSC05700 | 3.53e6 | 4.05e6 | 3.97e6 |
| Liprin-beta | DRSC09795 | 3.34e6 | 3.69e6 | 3.82e6 |
| Liprin-beta | DRSC23339 | 2.70e6 | 2.52e6 | 3.41e6 |
| CG6108 (retired record) | DRSC02929 | 3.53e6 | 3.88e6 | 4.13e6 |
| CG2577 | DRSC19863 | 3.28e6 | 3.82e6 | 3.71e6 |
| CG2577 | DRSC23309 | 3.54e6 | 4.06e6 | 4.00e6 |
| CG9281 | DRSC20179 | 3.46e6 | 4.25e6 | 3.80e6 |
| Lmpt | DRSC09450 | 3.52e6 | 3.93e6 | 4.06e6 |
| Lmpt | DRSC09864 | 3.56e6 | 4.04e6 | 4.04e6 |
| Lmpt | DRSC09865 | 3.76e6 | 4.23e6 | 4.19e6 |
| Lmpt | DRSC09866 | 3.58e6 | 4.09e6 | 4.03e6 |
| Lmpt | DRSC11107 | 3.55e6 | 4.04e6 | 4.02e6 |
| Lmpt | DRSC21738 | 3.34e6 | 3.85e6 | 3.84e6 |
| Lmpt | DRSC22921 | 3.19e6 | 3.78e6 | 3.81e6 |
| CG11231 (retired record) | DRSC17207 | 3.62e6 | 4.18e6 | 4.02e6 |
| Ns3 | DRSC18607 | 3.52e6 | 3.93e6 | 4.05e6 |
| CG15344 (retired record) | DRSC18029 | 3.49e6 | 4.00e6 | 3.93e6 |
| Pld3 | DRSC03167 | 3.58e6 | 4.10e6 | 3.99e6 |
| CG9135 | DRSC03144 | 3.67e6 | 4.15e6 | 4.21e6 |
| Kaz | DRSC14637 | 3.56e6 | 3.99e6 | 4.07e6 |
| CG32811 | DRSC22649 | 3.60e6 | 4.05e6 | 4.06e6 |
| CG2267 | DRSC15435 | 3.39e6 | 3.78e6 | 3.82e6 |
| Lsm11 | DRSC06238 | 3.45e6 | 3.86e6 | 3.99e6 |
| CG15387 | DRSC00401 | 3.64e6 | 4.11e6 | 4.20e6 |
| RabX1 | DRSC04678 | 3.64e6 | 3.98e6 | 4.27e6 |
| l(3)07882 | DRSC15882 | 3.53e6 | 3.98e6 | 4.04e6 |
